{
  "sequences": {"note": "Chains of the proteins cited; added tags and fusions are not shown. Lines headed by an entry give the natural chain unless they say otherwise; changes in a name come on top.", "UniProt Q9Y490": "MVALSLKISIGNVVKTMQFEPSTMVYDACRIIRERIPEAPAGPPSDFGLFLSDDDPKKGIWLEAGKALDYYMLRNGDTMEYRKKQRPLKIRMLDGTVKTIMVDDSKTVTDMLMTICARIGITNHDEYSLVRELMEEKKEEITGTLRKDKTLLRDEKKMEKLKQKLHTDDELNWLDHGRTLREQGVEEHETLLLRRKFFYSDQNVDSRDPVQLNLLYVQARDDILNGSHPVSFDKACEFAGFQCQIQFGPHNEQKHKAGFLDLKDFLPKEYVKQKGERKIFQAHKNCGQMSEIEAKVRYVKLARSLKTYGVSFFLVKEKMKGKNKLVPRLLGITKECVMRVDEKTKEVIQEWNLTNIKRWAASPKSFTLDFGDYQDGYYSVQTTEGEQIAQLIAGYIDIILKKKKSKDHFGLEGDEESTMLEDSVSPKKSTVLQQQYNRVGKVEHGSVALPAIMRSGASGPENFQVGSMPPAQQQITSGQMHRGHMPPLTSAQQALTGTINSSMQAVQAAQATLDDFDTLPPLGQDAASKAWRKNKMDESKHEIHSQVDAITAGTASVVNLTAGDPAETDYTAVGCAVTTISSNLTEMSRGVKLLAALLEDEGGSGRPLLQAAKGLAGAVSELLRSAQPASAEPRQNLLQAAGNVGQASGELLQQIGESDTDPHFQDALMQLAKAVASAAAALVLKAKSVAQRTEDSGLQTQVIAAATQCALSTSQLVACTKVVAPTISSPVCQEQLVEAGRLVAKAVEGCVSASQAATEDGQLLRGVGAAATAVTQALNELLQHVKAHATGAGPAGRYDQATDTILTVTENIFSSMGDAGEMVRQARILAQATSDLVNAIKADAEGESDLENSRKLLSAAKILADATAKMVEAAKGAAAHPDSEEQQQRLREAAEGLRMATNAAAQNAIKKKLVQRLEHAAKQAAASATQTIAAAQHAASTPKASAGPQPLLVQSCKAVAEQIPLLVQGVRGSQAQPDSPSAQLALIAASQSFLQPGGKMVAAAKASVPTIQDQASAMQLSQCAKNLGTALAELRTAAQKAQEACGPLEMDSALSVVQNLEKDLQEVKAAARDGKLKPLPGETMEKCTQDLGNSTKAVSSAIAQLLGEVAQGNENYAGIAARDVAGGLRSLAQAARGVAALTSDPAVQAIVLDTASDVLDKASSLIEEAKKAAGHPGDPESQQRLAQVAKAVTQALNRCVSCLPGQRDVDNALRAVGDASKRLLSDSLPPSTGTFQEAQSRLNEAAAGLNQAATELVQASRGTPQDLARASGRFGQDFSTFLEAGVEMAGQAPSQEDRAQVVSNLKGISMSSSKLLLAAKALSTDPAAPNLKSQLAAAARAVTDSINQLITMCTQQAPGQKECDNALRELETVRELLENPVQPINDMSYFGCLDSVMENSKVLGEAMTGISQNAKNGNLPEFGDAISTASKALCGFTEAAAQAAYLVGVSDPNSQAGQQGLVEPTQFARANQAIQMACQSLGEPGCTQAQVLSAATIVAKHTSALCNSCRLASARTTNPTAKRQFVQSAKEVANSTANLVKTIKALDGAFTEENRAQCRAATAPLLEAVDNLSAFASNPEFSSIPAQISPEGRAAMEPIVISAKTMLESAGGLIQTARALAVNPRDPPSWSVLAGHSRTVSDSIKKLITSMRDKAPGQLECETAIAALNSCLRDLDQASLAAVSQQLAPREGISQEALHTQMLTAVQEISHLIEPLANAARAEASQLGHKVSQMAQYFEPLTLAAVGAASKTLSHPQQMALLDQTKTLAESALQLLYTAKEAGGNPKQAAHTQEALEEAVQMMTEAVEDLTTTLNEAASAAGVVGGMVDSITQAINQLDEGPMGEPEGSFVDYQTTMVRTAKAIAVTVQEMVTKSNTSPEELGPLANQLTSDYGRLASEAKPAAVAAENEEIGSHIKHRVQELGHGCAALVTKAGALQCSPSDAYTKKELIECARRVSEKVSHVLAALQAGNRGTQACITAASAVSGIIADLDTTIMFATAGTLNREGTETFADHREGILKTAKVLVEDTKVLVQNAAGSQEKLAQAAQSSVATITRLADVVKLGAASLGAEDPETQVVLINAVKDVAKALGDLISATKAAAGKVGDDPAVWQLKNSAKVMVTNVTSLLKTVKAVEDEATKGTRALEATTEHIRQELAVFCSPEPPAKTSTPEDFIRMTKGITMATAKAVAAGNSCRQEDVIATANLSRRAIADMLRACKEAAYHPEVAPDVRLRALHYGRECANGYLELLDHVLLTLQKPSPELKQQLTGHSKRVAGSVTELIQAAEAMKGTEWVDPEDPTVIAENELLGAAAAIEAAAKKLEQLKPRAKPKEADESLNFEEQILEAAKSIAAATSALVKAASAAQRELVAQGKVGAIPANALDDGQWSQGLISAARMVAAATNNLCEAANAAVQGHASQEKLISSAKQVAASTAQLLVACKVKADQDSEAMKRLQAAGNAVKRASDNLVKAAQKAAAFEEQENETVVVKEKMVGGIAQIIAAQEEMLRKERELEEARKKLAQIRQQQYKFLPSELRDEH", "UniProt Q9UJS0": "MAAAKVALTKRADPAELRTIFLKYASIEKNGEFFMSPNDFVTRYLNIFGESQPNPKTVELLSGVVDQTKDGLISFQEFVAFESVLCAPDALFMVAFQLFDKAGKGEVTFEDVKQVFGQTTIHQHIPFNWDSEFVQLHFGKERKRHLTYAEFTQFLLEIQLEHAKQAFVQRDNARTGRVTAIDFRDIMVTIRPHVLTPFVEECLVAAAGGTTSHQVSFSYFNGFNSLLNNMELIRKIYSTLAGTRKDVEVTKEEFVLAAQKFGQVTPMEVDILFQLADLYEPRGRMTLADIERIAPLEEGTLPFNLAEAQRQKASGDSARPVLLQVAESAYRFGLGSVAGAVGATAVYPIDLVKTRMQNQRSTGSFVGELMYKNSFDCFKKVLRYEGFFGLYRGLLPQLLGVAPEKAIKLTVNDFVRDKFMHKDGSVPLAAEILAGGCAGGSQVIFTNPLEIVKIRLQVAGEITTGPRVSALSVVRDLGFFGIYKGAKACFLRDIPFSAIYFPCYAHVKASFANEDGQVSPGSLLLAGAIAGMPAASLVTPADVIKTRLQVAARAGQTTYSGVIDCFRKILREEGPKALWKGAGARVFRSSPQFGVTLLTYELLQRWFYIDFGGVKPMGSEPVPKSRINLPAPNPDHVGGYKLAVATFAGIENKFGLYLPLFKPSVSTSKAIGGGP", "UniProt Q9ULV4, whole entry, looked up": "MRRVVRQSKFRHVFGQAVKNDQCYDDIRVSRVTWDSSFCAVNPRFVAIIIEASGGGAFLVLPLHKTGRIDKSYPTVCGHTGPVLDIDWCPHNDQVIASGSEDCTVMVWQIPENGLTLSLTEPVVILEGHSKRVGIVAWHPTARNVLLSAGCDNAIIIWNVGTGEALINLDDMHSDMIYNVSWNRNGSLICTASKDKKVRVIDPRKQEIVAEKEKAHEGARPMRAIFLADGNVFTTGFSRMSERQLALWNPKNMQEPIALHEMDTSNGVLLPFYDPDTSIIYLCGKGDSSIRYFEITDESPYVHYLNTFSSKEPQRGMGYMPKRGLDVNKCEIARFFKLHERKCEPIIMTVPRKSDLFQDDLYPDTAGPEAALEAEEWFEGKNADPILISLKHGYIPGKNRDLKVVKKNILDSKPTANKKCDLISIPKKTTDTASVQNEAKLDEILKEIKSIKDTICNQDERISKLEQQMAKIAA", "UniProt Q9UNS2": "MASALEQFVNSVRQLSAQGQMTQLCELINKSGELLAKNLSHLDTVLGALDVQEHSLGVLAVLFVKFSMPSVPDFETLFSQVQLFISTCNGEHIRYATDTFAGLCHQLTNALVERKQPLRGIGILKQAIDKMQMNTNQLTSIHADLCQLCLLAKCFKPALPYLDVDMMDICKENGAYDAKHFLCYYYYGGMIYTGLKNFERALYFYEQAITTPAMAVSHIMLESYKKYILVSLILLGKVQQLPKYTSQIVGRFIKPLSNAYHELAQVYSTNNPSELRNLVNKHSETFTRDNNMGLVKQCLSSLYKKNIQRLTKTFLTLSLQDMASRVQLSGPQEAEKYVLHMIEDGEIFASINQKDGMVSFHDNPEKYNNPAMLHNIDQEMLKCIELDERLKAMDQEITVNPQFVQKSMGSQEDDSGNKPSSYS", "UniProt Q9Y265, whole entry, looked up": "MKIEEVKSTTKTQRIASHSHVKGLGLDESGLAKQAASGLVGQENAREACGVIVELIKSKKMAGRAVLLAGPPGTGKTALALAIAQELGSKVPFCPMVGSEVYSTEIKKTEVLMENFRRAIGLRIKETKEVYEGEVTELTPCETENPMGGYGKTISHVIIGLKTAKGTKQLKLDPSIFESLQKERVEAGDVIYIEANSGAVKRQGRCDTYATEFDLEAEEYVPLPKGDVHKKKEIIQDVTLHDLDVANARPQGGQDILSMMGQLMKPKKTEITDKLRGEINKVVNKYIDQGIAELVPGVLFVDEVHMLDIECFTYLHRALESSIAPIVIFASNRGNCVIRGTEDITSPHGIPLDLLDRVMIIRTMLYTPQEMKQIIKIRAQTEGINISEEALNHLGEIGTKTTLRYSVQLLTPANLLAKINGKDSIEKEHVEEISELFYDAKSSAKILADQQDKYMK", "UniProt Q9UJZ1": "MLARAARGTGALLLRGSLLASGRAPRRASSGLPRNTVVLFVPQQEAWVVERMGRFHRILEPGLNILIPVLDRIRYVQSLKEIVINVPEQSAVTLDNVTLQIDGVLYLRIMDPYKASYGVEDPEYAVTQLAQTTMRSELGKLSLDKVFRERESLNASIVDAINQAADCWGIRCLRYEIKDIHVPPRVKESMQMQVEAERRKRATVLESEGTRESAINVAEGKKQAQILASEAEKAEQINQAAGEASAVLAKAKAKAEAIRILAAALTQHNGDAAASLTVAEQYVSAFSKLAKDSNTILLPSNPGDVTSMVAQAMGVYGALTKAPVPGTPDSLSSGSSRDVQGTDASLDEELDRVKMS", "UniProt Q9Y3D0": "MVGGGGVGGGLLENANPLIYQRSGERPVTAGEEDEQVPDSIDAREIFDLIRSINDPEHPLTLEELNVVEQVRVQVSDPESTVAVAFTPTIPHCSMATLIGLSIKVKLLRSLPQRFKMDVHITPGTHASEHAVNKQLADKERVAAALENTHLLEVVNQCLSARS", "UniProt Q9UKJ3": "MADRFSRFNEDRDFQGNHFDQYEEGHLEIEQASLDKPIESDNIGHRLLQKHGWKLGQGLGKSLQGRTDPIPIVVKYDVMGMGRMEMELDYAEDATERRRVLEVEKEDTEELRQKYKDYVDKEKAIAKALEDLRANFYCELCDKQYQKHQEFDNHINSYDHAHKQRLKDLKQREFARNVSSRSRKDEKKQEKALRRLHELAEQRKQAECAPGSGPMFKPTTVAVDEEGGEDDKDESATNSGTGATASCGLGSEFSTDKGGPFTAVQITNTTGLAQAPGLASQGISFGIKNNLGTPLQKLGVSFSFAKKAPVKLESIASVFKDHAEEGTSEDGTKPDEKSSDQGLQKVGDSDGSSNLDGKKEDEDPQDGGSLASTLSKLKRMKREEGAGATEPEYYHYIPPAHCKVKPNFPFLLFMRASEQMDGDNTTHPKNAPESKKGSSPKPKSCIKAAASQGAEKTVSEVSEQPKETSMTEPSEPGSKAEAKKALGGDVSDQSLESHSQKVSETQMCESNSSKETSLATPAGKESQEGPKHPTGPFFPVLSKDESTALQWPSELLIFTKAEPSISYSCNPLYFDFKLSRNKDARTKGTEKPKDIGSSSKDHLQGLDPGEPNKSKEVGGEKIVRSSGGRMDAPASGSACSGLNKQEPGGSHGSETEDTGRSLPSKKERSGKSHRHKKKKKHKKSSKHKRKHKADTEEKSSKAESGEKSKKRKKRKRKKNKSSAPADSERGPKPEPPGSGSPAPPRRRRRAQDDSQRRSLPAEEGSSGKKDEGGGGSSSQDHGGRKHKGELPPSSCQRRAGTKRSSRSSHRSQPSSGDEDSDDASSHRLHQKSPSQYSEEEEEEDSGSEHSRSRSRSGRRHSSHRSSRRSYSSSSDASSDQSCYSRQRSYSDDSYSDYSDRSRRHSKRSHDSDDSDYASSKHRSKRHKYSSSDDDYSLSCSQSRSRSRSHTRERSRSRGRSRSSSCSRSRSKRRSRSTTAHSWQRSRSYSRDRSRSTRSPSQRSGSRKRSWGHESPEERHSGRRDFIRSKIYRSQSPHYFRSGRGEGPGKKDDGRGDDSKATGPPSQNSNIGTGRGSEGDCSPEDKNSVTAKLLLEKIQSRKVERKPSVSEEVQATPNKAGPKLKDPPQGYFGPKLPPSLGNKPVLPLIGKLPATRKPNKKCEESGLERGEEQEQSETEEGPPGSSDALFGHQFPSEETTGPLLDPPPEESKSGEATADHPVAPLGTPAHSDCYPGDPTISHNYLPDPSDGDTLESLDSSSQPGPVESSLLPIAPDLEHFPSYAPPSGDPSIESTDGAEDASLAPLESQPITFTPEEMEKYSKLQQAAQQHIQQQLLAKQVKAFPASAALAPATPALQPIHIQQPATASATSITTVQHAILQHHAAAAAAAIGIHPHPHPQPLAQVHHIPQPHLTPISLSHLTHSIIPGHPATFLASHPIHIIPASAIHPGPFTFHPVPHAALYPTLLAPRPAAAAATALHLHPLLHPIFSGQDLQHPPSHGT"},
  "source": "the supplement of paper PMC11006884",
  "note": "Only a part is listed here, and it is no random draw.",
  "data": [
    {"compound": "COC(=O)C#Cc1ccccc1 [methyl 3-phenylpropiolate]", "assay": "log2 ratio of iodoacetamide-alkyne labeling of the cysteine site, DMSO over compound (competition); higher = stronger covalent engagement of the cysteine by the compound, active = 1 or more", "details": "500 µM; treatment time 1 h; system: HEK293T cell lysate", "method_in_brief": "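For each cysteine, the log2 competition ratio is mean control-channel reporter intensity over mean compound-channel reporter intensity. HEK293T lysate (2 mg/mL) was exposed to vehicle or electrophile (500 µM, 1 h, ambient temperature), labelled with iodoacetamide alkyne (1 h), clicked to sCIP-TMT reagents, digested overnight with trypsin at 37 °C, streptavidin-enriched and analysed by Orbitrap Eclipse LC-MS/MS with FAIMS and FragPipe. Cysteines quantified in only one of three replicates, each with duplicate channels, were excluded.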", "values": [
      {"target": "PACSIN3 C421 (UniProt Q9UKS6)", "log2 ratio of iodoacetamide-alkyne labeling": "inactive: 0.00259"},
      {"target": "ATP6V0A2 C165 (UniProt Q9Y487)", "log2 ratio of iodoacetamide-alkyne labeling": "inactive: 0.321"},
      {"target": "TLN1 C1023 (UniProt Q9Y490)", "log2 ratio of iodoacetamide-alkyne labeling": "inactive: 0.0201"},
      {"target": "MYO6 C1102 (UniProt Q9UM54)", "log2 ratio of iodoacetamide-alkyne labeling": "inactive: 0.234"},
      {"target": "ICE1 C1616 (UniProt Q9Y2F5)", "log2 ratio of iodoacetamide-alkyne labeling": "inactive: 0.593"},
      {"target": "SLC25A13 C565 (UniProt Q9UJS0)", "log2 ratio of iodoacetamide-alkyne labeling": "inactive: 0.102"},
      {"target": "CORO1C C420 (UniProt Q9ULV4)", "log2 ratio of iodoacetamide-alkyne labeling": "inactive: 0.977"},
      {"target": "COPS3 C25 (UniProt Q9UNS2)", "log2 ratio of iodoacetamide-alkyne labeling": "inactive: 0.12"},
      {"target": "TPX2 C145 (UniProt Q9ULW0)", "log2 ratio of iodoacetamide-alkyne labeling": "inactive: 0.384"},
      {"target": "BAZ1B C1045 (UniProt Q9UIG0)", "log2 ratio of iodoacetamide-alkyne labeling": "inactive: 0.519"},
      {"target": "ACIN1 C1223 (UniProt Q9UKV3)", "log2 ratio of iodoacetamide-alkyne labeling": "inactive: 0.00206"},
      {"target": "RUVBL1 C94 (UniProt Q9Y265)", "log2 ratio of iodoacetamide-alkyne labeling": "inactive: 0.0602"},
      {"target": "STOML2 C167 (UniProt Q9UJZ1)", "log2 ratio of iodoacetamide-alkyne labeling": "inactive: -0.163"},
      {"target": "ZMYND8 C196 (UniProt Q9ULU4)", "log2 ratio of iodoacetamide-alkyne labeling": "inactive: -0.0132"},
      {"target": "NUP50 C165 (UniProt Q9UKX7)", "log2 ratio of iodoacetamide-alkyne labeling": "inactive: 0.249"},
      {"target": "UniProt Q9Y3D0_C93", "log2 ratio of iodoacetamide-alkyne labeling": "inactive: 0.0692"},
      {"target": "UniProt Q9UI30_C33", "log2 ratio of iodoacetamide-alkyne labeling": "inactive: 0.087"},
      {"target": "TNRC6B C600 (UniProt Q9UPQ9)", "log2 ratio of iodoacetamide-alkyne labeling": "inactive: 0.638"},
      {"target": "GPATCH8 C569 (UniProt Q9UKJ3)", "log2 ratio of iodoacetamide-alkyne labeling": "inactive: 0.815"},
      {"target": "BAG5 C118 (UniProt Q9UL15)", "log2 ratio of iodoacetamide-alkyne labeling": "inactive: 0.0776"},
      {"target": "BAZ1B C953 (UniProt Q9UIG0)", "log2 ratio of iodoacetamide-alkyne labeling": "active: 1.28"}
    ]}
  ]
}
